Source: patent US20110201620A1, “2-(3-AMINOARYL) AMINO-4-ARYL-THIAZOLES AND THEIR USE AS C-KIT INHIBITORS” (AB SCIENCE, priority 2002, published 2011)
Some of these results come from one statement about several compounds together.

Tests used:
[1] = molecular target: c-Kit WT (UniProt P05532); test: Ex vivo TK inhibition assay, proliferation ([3H] thymidine) of Ba/F3 kit cells; settings: read-out: IC50 c-Kit WT
[2] = molecular target: c-Kit JM Δ27 (Mus musculus, UniProt P05532); test: Ex vivo TK inhibition assay, proliferation ([3H] thymidine) of Ba/F3 mkitΔ27 cells; settings: read-out: IC50 c-Kit JM Δ27; juxtamembrane deletion

Compound	IC50 [1] [µM]	IC50 [2] [µM]
Cc1ccc(NC(=O)c2ccc(CN3CCN(C)CC3)c(Cl)c2)cc1Nc1nc(-c2cccnc2)cs1 [Compound 079, 3-Chloro-4-(4-methyl-piperazin-1-ylmethyl)-N-[4-methyl-3-(4-pyridin-3-yl-thiazol-2-ylamino)-phenyl]-benzamide]	< 10	< 1
Cc1ccc(NC(=O)c2ccc(CN3CCN(C)CC3)cc2)cc1Nc1nc(-c2ccc(Cl)cc2)cs1 [Compound 108, N-{3-[4-(4-Chloro-phenyl)-thiazol-2-ylamino]-4-methyl-phenyl}-4-(4-methyl-piperazin-1-ylmethyl)-benzamide]	< 10	< 1
Cc1ccc(NC(=O)c2ccc(CO)cc2)cc1Nc1nc(-c2cccnc2)cs1 [Compound 030, 4-Hydroxymethyl-N-[4-methyl-3-(4-pyridin-3-yl-thiazol-2-ylamino)-phenyl]-benzamide]	< 10	< 1
Cc1ccc(NC(=O)c2cccc(Br)c2)cc1Nc1nc(-c2cccnc2)cs1 [Compound 028, 3-Bromo-N-[4-methyl-3-(4-pyridin-3-yl-thiazol-2-ylamino)-phenyl]-benzamide]	< 10	< 1
Cc1ccc(NC(=O)Nc2ccc(OC(F)F)cc2)cc1Nc1nc(-c2cccnc2)cs1 [Compound 021, 1-(4-Difluoromethoxy-phenyl)-3-[4-methyl-3-(4-pyridin-3-yl-thiazol-2-ylamino)-phenyl]-urea]	< 10	< 1
Cc1ccc(NC(=O)c2ccc(CN3CCN(C)CC3)cc2)cc1Nc1nc(-c2ccccn2)cs1 [Compound 122, 4-(4-Methyl-piperazin-1-ylmethyl)-N-[4-methyl-3-(4-pyridin-2-yl-thiazol-2-ylamino)-phenyl]-benzamide]	< 10	< 1
Cc1ccc(NC(=O)c2cccc(-c3ccccc3)c2)cc1Nc1nc(-c2cccnc2)cs1 [Compound 062, Biphenyl-3-carboxylic acid [4-methyl-3-(4-pyridin-3-yl-thiazol-2-ylamino)-phenyl]-amide]	< 10	< 1
Cc1ccc(NC(=O)Nc2ccc(C)c(Nc3nc(-c4cccnc4)cs3)c2)cc1 [Compound 026, 1-[4-Methyl-3-(4-pyridin-3-yl-thiazol-2-ylamino)-phenyl]-3-p-tolyl-urea]	< 10	< 1
Cc1ccc(NC(=O)c2cccc(N(C)C)c2)cc1Nc1nc(-c2cccnc2)cs1 [Compound 088, 3-Dimethylamino-N-[4-methyl-3-(4-pyridin-3-yl-thiazol-2-ylamino)-phenyl]-benzamide]	< 10	< 1
Cc1ccc(F)c(C(=O)Nc2ccc(C)c(Nc3nc(-c4cccnc4)cs3)c2)c1 [Compound 048, 2-Fluoro-5-methyl-N-[4-methyl-3-(4-pyridin-3-yl-thiazol-2-ylamino)-phenyl]-benzamide]	< 10	< 1
Cc1ccc(NC(=O)c2ccc(OS(=O)(=O)c3cccs3)cc2)cc1Nc1nc(-c2cccnc2)cs1 [Compound 042, Thiophene-2-sulfonic acid 4-[4-methyl-3-(4-pyridin-3-yl-thiazol-2-ylamino)-phenylcarbamoyl]-phenyl ester]	< 10	< 1
Cc1ccc(NC(=O)c2ccc(CN3CCN(C)CC3)cc2)cc1Nc1nc(-c2nccs2)cs1 [Compound 005, N-[3-([2,4′]Bithiazolyl-2′-ylamino)-4-methyl-phenyl]-4-(4-methyl-piperazin-1-ylmethyl)-benzamide]	< 10	< 1
Cc1ccc(NC(=O)c2cccc(C(F)(F)F)c2F)cc1Nc1nc(-c2cccnc2)cs1 [Compound 055, 2-Fluoro-N-[4-methyl-3-(4-pyridin-3-yl-thiazol-2-ylamino)-phenyl]-3-trifluoromethyl-benzamide]	< 10	< 1
Cc1ccc(NC(=O)c2ccc(CN3CCN(C)CC3)cc2)cc1Nc1nc(-c2cccc(F)c2)cs1 [Compound 111, N-{3-[4-(3-Fluoro-phenyl)-thiazol-2-ylamino]-4-methyl-phenyl}-4-(4-methyl-piperazin-1-ylmethyl)-benzamide]	< 10	< 1
Cc1ccc(NC(=O)c2cc(Cl)nc(Cl)c2)cc1Nc1nc(-c2cccnc2)cs1 [Compound 064, 2,6-Dichloro-N-[4-methyl-3-(4-pyridin-3-yl-thiazol-2-ylamino)-phenyl]-isonicotinamide]	< 10	< 1
Cc1ccc(NC(=O)OCC(C)C)cc1Nc1nc(-c2cccnc2)cs1 [Compound 097, [4-Methyl-3-(4-pyridin-3-yl-thiazol-2-ylamino)-phenyl]-carbamic acid isobutyl ester]	< 10	< 1
Cc1ccc(NC(=O)c2ccc(CN3CCN(C)CC3)cc2)cc1Nc1nc(-c2ccccc2F)cs1 [Compound 118, N-{3-[4-(2-Fluoro-phenyl)-thiazol-2-ylamino]-4-methyl-phenyl}-4-(4-methyl-piperazin-1-ylmethyl)-benzamides]	< 10	< 1
Cc1ccc(NC(=O)c2ccc(CNC(=O)Nc3ccc(C(F)(F)F)cc3)cc2)cc1Nc1nc(-c2cccnc2)cs1 [Compound 086, N-[4-Methyl-3-(4-pyridin-3-yl-thiazol-2-ylamino)-phenyl]-4-[3-(4-trifluoromethyl-phenyl)-ureidomethyl]-benzamide]	< 10	< 1
Cc1ccc(NC(=O)c2cccc(N3CCN(C)CC3)c2)cc1Nc1nc(-c2cccnc2)cs1 [Compound 089, 3-(4-Methyl-piperazin-1-yl)-N-[4-methyl-3-(4-pyridin-3-yl-thiazol-2-ylamino)-phenyl]-benzamide]	< 10	< 1
COc1cccc(-c2csc(Nc3cc(NC(=O)c4ccc(CN5CCN(C)CC5)cc4)ccc3C)n2)c1 [Compound 113, N-{3-[4-(3-Methoxy-phenyl)-thiazol-2-ylamino]-4-methyl-phenyl}-4-(4-methyl-piperazin-1-ylmethyl)-benzamide]	< 10	< 1
Cc1ccc(NC(=O)c2ccncc2)cc1Nc1nc(-c2cccnc2)cs1 [Compound 063, N-[4-Methyl-3-(4-pyridin-3-yl-thiazol-2-ylamino)-phenyl]-isonicotinamide]	< 10	< 1
Cc1ccc(NC(=O)c2cc(Br)c(CN3CCCCC3)c(Br)c2)cc1Nc1nc(-c2cccnc2)cs1 [Compound 107, 3,5-Dibromo-N-[4-methyl-3-(4-pyridin-3-yl-thiazol-2-ylamino)-phenyl]-4-piperidin-1-ylmethyl-benzamide]	< 10	< 1
Cc1ccc(NC(=O)c2ccc(C(C)(C)C)cc2)cc1Nc1nc(-c2cccnc2)cs1 [Compound 049, 4-tert-Butyl-N-[4-methyl-3-(4-pyridin-3-yl-thiazol-2-ylamino)-phenyl]-benzamide]	< 10	< 1
Cc1ccc(NC(=O)c2cccc(I)c2)cc1Nc1nc(-c2cccnc2)cs1 [Compound 029, 3-Iodo-N-[4-methyl-3-(4-pyridin-3-yl-thiazol-2-ylamino)-phenyl]-benzamide]	< 10	< 1
Cc1ccc(NC(=O)c2cccc(C(F)(F)F)c2)cc1Nc1nc(-c2cccnc2)cs1 [Compound 065, N-[4-Methyl-3-(4-pyridin-3-yl-thiazol-2-ylamino)-phenyl]-3-trifluoromethyl-benzamide]	< 10	< 1
